Data published in paper PMC9417990.
Numbering of substitutions follows the chain as printed. No constants are given. Whether binding was seen depends on the method and setting. In cells and extracts the contact can be indirect. Some binding calls cover weakened binding; strength is not graded here. Tags and fused reporters may be left off the sequences shown.

Sequences of proteins named here, by UniProt entry; tags and fusion partners are left off.
UniProt Q460N5: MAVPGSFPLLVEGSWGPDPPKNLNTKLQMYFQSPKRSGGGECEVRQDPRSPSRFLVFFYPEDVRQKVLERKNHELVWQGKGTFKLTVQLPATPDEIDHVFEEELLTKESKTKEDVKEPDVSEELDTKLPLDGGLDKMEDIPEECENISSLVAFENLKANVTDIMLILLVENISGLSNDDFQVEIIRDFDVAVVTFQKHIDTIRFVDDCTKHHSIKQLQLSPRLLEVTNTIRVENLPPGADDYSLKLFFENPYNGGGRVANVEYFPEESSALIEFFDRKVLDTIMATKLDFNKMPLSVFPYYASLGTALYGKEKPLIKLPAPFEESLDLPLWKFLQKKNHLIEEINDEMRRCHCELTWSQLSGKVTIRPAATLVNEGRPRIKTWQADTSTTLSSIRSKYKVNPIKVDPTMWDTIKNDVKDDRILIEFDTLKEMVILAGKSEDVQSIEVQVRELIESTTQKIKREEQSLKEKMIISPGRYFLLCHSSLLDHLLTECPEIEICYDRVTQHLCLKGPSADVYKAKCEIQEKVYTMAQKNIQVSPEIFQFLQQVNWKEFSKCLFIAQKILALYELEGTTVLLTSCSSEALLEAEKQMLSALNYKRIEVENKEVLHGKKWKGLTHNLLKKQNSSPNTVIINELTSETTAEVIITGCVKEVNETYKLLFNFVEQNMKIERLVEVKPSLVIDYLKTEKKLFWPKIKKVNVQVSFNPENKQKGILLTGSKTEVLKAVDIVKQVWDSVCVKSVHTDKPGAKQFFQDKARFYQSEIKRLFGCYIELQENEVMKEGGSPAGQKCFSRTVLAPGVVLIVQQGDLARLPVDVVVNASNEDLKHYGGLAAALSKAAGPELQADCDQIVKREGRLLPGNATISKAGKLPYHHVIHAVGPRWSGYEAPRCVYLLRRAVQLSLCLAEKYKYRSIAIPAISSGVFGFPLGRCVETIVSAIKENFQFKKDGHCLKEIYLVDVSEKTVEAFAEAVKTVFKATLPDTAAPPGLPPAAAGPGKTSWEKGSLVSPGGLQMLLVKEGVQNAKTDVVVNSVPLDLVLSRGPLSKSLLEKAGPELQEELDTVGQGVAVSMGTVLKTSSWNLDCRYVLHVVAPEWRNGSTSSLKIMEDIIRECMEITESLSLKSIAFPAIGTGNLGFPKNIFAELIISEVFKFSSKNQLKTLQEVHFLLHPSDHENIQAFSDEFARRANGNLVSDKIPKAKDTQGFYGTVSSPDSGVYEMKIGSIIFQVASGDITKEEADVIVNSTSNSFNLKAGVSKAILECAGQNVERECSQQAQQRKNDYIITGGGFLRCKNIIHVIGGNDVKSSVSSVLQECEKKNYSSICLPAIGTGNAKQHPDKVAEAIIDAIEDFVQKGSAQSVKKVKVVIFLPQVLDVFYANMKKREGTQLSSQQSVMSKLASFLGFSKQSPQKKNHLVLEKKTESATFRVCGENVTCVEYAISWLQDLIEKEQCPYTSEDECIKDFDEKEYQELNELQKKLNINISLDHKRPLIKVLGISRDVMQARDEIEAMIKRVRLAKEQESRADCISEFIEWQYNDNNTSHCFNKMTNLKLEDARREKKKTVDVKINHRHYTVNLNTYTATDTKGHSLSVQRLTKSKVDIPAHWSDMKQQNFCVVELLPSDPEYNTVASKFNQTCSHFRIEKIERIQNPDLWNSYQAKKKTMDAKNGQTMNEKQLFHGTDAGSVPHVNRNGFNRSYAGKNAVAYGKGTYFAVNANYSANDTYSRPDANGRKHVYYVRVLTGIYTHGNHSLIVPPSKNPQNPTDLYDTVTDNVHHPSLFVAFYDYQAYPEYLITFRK

Legend:
[1] = target: T1, Flag-tagged mutant STAT6 D419G (human) (UniProt P42226); experiment: proximity ligation; 2 µm cytoblock sections of OCI-Ly8 cells (STAT6^WT vs STAT6^MUT, with or without IL-4 10 ng/ml for 20 min), co-stained with mouse anti-STAT6 and rabbit anti-PARP14; PLA spots per cell counted in five view fields
T1 sequence: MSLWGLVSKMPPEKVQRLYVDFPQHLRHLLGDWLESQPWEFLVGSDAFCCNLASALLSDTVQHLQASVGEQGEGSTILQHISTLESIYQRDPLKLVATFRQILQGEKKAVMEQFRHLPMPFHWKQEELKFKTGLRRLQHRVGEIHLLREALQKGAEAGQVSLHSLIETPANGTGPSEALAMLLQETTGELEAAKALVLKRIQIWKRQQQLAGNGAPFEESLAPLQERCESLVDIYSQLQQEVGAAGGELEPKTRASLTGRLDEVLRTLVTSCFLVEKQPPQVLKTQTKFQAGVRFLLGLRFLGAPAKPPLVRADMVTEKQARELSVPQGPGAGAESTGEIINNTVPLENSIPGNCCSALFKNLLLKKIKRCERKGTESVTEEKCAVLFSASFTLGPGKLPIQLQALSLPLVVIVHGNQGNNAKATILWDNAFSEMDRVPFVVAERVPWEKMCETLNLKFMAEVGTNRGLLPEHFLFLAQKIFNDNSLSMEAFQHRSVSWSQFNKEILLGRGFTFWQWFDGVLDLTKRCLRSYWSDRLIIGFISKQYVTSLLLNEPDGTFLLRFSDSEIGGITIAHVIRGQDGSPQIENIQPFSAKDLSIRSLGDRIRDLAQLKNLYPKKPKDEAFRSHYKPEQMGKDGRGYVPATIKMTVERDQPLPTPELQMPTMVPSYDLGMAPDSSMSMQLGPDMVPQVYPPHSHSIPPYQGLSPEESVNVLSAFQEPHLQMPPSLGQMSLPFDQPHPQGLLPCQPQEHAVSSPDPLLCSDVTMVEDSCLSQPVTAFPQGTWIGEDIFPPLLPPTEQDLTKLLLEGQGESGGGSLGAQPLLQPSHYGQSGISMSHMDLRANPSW

[2] = target: T2, Flag-tagged wild type STAT6 (human) (UniProt P42226); experiment: as above
T2 sequence: T1 sequence with G419D

binding [1]: binds
binding [2]: binds
Substance: Poly(ADP-Ribose) Polymerase Family Member 14 (PARP14) (from UniProt Q460N5 1-1801)
